In publication PMC10383035:
These are yes or no findings as the source states them, for the method shown. Binding seen in cells or lysates may run through a third protein. For part of these data: Binding can be weak; no strength is given. Sequences can lack the tags named with a protein. Blank lines part the entries; values can stand above or below the molecule they belong to.

Legend:
Experiment in all cases: co-IP; HEK293T cells co-transfected with HA-tagged Card9 and FLAG-tagged Dok3 or truncation variants; lysates IP overnight at 4 °C with anti-FLAG or anti-HA antibodies and Protein A/G Plus Agarose beads; blotted with anti-HA and anti-FLAG
[1] = target: T1, HA-tagged Card9 truncation variant encoding the CARD domain (UniProt Q9H257)
T1 sequence: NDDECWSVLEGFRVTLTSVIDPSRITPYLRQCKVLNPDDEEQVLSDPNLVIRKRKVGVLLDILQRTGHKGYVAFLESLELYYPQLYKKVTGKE

[2] = target: T2, HA-tagged full-length Card9 (UniProt Q9H257)
T2 sequence: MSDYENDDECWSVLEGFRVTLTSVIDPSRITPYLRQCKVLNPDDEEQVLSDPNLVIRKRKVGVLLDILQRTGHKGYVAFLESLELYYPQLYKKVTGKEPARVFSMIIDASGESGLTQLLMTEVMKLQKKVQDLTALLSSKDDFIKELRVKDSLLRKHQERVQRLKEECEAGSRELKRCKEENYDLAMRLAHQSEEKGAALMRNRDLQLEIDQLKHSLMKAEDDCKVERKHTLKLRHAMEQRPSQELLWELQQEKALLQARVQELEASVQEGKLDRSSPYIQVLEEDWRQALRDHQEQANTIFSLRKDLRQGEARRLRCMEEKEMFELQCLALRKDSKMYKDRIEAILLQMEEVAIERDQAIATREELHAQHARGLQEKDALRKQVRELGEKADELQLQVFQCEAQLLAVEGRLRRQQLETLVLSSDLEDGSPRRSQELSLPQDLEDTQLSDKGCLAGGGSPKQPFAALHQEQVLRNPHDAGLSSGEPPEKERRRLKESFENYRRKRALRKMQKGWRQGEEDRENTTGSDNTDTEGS

[3] = target: FLAG-tagged Dok3 truncation variant bearing the PH domain
[4] = target: FLAG-tagged Dok3 truncation variant bearing the SH2 domain
[5] = target: FLAG-tagged full-length Dok3
[6] = target: FLAG-tagged Dok3 truncation variant bearing the PTB domain

binding [1]: no binding | binding [2]: binds
Molecule: FLAG-tagged full-length Dok3

binding [3]: binds | binding [4]: no binding | binding [5]: binds | binding [6]: binds
B1: HA-tagged full-length Card9 (protein, UniProt Q9H257 1-536)
chain: T2 sequence
